A short description of the data set: Molecular sensing by potential shift, DSS/APTES-modified ITO electrode. The note with it: 0.0001 mol/L target molecules in phosphate buffer pH 7.4, room temperature, Ar; at time point potential no longer changed by ±0.5 mV or more for 5 minutes (15 min tryptamine, 40 min indolepropionic acid).

Each structure is given as a SMILES string.

On to `O=C(O)CCc1c[nH]c2ccccc12` [indolepropionic acid], for which the “potential shift (ΔE=E−E0)” value is recorded as −396 mV.

Take `NCCc1c[nH]c2ccccc12` [tryptamine]: the “potential shift (ΔE=E−E0)” value is −507 mV.

These data come from US8148160B2, “Electrode for molecular sensing and method for molecular sensing” (Waseda University, priority 2008, dated 2012).
